This series addresses T1, AtHYL1N (Arabidopsis thaliana) (UniProt O04492).
T1 sequence (looked up): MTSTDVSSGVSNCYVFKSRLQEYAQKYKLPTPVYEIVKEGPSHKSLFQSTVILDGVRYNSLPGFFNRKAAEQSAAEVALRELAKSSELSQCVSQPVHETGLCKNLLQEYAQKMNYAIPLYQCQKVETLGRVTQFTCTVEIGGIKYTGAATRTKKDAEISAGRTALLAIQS
Kind of series: EMSA. The conditions noted are these: poly-dIdC; residues 1-170.

Weaker means in comparison with the reference protein, sequence or condition of that experiment. Tags and fusion partners may be left off the protein sequences shown.

As for “GCCCTGCAACCGAGACCACGCTTATGGAGCCTGGGACGTGGTCTCGGTTG [50-nt DNA hairpin (dsDNA hairpin loop)]”, the binding result is on record as “binds more weakly”.

The values above are taken from doi:10.1101/396861.
